Values of other authors, collected in patent US10064928B2, “Peptides and combination of peptides for use in immunotherapy against CLL and other cancers” (IMMATICS BIOTECHNOLOGIES GMBH, priority 2015, dated 2018).
At least one structure is not confirmed: it was looked up by name or label, or the drawing left a doubt.

Test system: CLL
Conditions: CLL patients; cited from earlier work

SMILES: Nc1nc(F)nc2c1ncn2[C@@H]1O[C@H](CO)[C@@H](O)[C@@H]1O [fludarabine]
- complete remission (CR): 7%
